From doi:10.1101/2025.03.27.645694
No constants are given. Whether binding was seen depends on the method and setting. Binding seen in cells or lysates may run through a third protein. Some binding calls cover weakened binding; strength is not graded here. Tags and fused reporters may be left off the sequences shown.

By UniProt entry, the sequences of proteins in these tests, tags left out.
UniProt Q9D9L5: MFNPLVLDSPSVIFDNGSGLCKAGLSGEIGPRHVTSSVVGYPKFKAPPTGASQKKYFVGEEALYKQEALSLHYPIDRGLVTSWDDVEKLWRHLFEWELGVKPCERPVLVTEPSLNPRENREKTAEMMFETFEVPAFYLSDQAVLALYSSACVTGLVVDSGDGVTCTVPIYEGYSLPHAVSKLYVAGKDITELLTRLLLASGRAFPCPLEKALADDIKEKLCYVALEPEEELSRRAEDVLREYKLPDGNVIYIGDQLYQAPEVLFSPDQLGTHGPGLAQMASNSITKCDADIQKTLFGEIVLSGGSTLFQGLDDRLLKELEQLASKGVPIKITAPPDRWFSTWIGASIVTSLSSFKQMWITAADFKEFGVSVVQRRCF

Biological target: T1, Actin-related protein M1 (ARPM1), HA-tagged (mouse) (UniProt Q8BXF8)
T1 sequence: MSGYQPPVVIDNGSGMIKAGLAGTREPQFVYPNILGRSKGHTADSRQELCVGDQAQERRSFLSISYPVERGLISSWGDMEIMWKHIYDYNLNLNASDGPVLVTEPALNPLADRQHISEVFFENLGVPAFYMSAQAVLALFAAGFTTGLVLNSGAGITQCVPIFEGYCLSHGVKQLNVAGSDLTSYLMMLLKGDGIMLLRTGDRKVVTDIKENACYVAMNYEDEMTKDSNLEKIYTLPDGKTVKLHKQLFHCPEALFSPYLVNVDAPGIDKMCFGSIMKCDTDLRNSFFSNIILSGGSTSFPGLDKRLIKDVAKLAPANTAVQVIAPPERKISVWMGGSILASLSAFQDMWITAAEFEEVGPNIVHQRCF
Experiment: co-IP

Substance: ACTRT2, Myc-tagged (from UniProt Q9D9L5 1-377)
- binding: binds
